From PubChem BioAssay record AID1159506 (NCATS, 2015).

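Genome-wide siRNA knockdown in TC32 Ewing sarcoma cells, comparing luciferase light from an NR0B1-promoter reporter with a CMV-promoter reporter 48 hours after transfection.
Each siRNA was applied at 20 nM.
A z-score of the log NR0B1-over-CMV signal, less the median of siRNAs with the same seed; more negative means a stronger specific loss of the NR0B1 reporter.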

The strongest results of the screen are mostly left out here.
Sequences are the guide (antisense) strand, without overhang.

| Sequence | target gene | seed-corrected z-score |
|---|---|---|
| `UUCCUAAGAGUGUAAGUCC` | MAOB | -0.3123 |
| `UGUCGUACAAGGUGAACAC` | CLEC16A | -0.09296 |
| `CAGUCUUAGAGUCUCCACC` | LOC729305 | 0.4811 |
| `UCCUCAAUAAUUGUCUCUC` | CNTD2 | -1.481 |
| `UAACCGGUGAUUUUCUGCC` | JAKMIP2 | 0.6057 |
| `UCCAAUUUCAUUCCAAGUG` | EVC2 | 1.422 |
| `UAUCAGUCAAGAUAAUACA` | TAS2R3 | 0.7722 |
| `UUUCUGGGUUCGUAGCUCC` | FAM183A | 0.6704 |
| `UAUGAGUAAUGAACUGCUC` | HIST1H2AK | 0.3542 |
| `UUCGGGAUAGUCGUAGUCG` | EID1 | -0.04283 |
| `UGUGGUAUGACCAUCAUGC` | DCST2 | -0.9827 |
| `UGUCCUUUAUCGUUGUUCC` | REC114 | -0.5854 |
| `UAGAAUGUAGGGCUUUUGG` | LOC728158 | 0.3746 |
| `UUAGUAACAUUGUCUACGC` | SCAF8 | 0.734 |
| `ACAGGGAUGACUGAAGGUC` | LOC729164 | 0.576 |
| `UUCUUGUAGAAGUUAAUUC` | NUSAP1 | 1.627 |
| `AAUGUCCUCACUGUAUUUG` | GPR83 | -0.1263 |
| `UUGCAGUCAUCGUCAAUCU` | PLCH2 | -0.4414 |
| `UCUGGUACACUGCUGUCGC` | IZUMO4 | 0.5667 |
| `UGACCUUUCAGGUUACGGG` | KIAA1462 | -0.2933 |
| `UUCGGGUAUACCUGUACUG` | CDO1 | 0.04967 |
| `UGCAGUAGAGUCAACAUUC` | POLR3K | -0.3155 |
| `AAACUUGACCCAACCAACC` | ORAI3 | 0.338 |
| `AAAAGGUUGAUGGUAGGUC` | TATDN3 | -0.9108 |
| `UCCCUCAAAAGCAUAGAUC` | MEAF6 | -0.3612 |
| `UCUGAAACAACACCUUUCC` | LOC646976 | -0.4601 |
| `UUAAAAAUUGAGAAUGUGC` | LINC01465 | 0.3565 |
| `AUUGUUGUCAGUUCAUUCA` | CENPN | -1.307 |
| `AAAACAGAAGCGGAUAUAG` | CCBL1 | -0.1697 |
| `AACAUCUCAAUCACCGUCC` | EHMT1 | -1.33 |
| `AAUGAUGCUUCCUACUUCC` | PCBP1 | -0.2532 |
| `UGUGCUUUAGCAGCUUCCU` | NXF5 | 0.0747 |
| `UUAGUUCUAAGAUCUCUGC` | FAM71C | -0.1238 |
| `UAAAUGUUGAUCAUAAGCA` | LSM3 | -1.094 |
| `AAUUGUUCAAAGAGAUCGC` | DYM | 0.616 |
| `AGAAAUACUAGAGAAGCUG` | TMEM88 | -0.7849 |
| `AAUGCAUCAAGGAAAAUCU` | CA3 | 0.08532 |
| `ACAGUGUCCGUUCCUUUCC` | RTCB | 1.433 |
| `ACAGGAUUCUGCAGGGUGG` | CALML6 | 0.1585 |
| `UUCAUCACAACCUCAGUUC` | CPNE4 | -0.214 |
| `UCAGUUGUAAAUGACAAUG` | TMPRSS11E | -0.01267 |
| `UUUGAUAUCGAGACUUUAU` | SKA2 | -0.8387 |
| `AGAUCUGUGAUAAUCCACC` | GRB2 | -0.0446 |
| `UACUGGUCCUCCAUGUACU` | AEN | 0.1132 |
| `UGUUGACCUAUGGUAAGGC` | TRIM59 | 0.8825 |
| `UUCCACGUAAGAAUUAUAG` | ARMCX2 | 0.1689 |
| `UUCGAGAGUAGUUUAGUCU` | WDR46 | 0.2754 |
| `UCUAAGCUAAAUCUGAUCC` | LOC727820 | 0.05681 |
| `UUCUCUUAUUUUUAGUAAG` | LOC728376 | 0.5137 |
| `AGCACGAUAAACAUCAUCC` | ZNF507 | -0.03854 |
| `UAAUUAUUGUCGAUGAGCG` | RGMA | -0.8948 |
| `UUCUAGUUGACAGAUUUGG` | FAM104A | -0.167 |
| `UAUCCGAUUGUCAUAAAUG` | OGT | -0.0384 |
| `UGCGCUUCAAUCCACAUCG` | HIPK3 | -0.9757 |
| `AAAGGAUCAAUAAACUCUG` | ELL2 | 0.6087 |
| `UCUUAUACCACAGGCAACC` | NRDC | 0.6622 |
| `UCAGUAUAAAACACCAGGC` | GPATCH3 | 0.6403 |
| `UGAUCUAUCAACUUUUCAC` | ASAH2B | -0.1746 |
| `AACAUGUUCCGCAUGAUCC` | RNF41 | 0.07885 |
| `UAUGAGUCUUCAUUCAGUG` | YWHAQ | -0.1383 |
| `AUUUAAAACCUGCAAGUGC` | LRTM1 | 1.266 |

The first 5 entries again:

For UUCCUAAGAGUGUAAGUCC against MAOB the result was seed-corrected z-score -0.3123.
For UGUCGUACAAGGUGAACAC against CLEC16A the result was seed-corrected z-score -0.09296.
For CAGUCUUAGAGUCUCCACC against LOC729305 the result was seed-corrected z-score 0.4811.
For UCCUCAAUAAUUGUCUCUC against CNTD2 the result was seed-corrected z-score -1.481.
For UAACCGGUGAUUUUCUGCC against JAKMIP2 the result was seed-corrected z-score 0.6057.